Test results taken from PubChem BioAssay AID493014 (National Center for Advancing Translational Sciences (NCATS), 2011).
The campaign covered roughly 340,000 compounds. About 170 (0.05%) were called active. This list was built around the results that the source calls inconclusive (neither active nor inactive); the mix of calls is not that of the screen. Calls follow the shape of the dose curve; as a rule, active = well fitted inhibition curve with a large enough effect in the signal ratio, with a control signal flat (not every such curve was filed as active); inconclusive = small, poorly fitted or top-dose-only effect, or effect the other way, or a change in a side signal; inactive = flat fitted curve, though single readings scatter; the % refers to the signal ratio. Potencies beside an inconclusive call are fits to weak or partial responses and may not hold up.

experiment: qHTS Assay to Find Inhibitors of Chronic Active B-Cell Receptor Signaling; settings: ABC-DLBCL IkBa-CBG/CBR reporter, luminescence ratio (green luciferase fused to IkBa over red control in TMD8 lymphoma cells), 4 h; activity change, negative = inhibition: at 46.1 µM (top of the series);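 as to activity change, negative = inhibition: plate controls were basal doxycycline-induced cells for no effect and cells given 10 µM MG132 for full effect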
Method in brief: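 Cell line TMD8 (human ABC DLBCL), stably expressing tet-inducible CBG68-IkBa fusion and CBR; IMDM/0.5% FBS; cpd up to 46 uM; dox induction, 4 h, 37C/5% CO2; dual luminescence; green/red ratio; MG132 control.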
Potency is read from the fitted curve at half-maximal effect.

SMILES | activity change, negative = inhibition | Potency
Cc1cc(C)c(S(=O)(=O)c2c(C)cccc2C)c(OCC(C)C)n1 | inactive: 22.6% | –
COC(=O)c1sccc1OCc1cccc(OC)c1 | inconclusive: -0.0101% | –
Cc1ccc(NC(=O)N2CCc3ccccc3C2)cc1 | – | inconclusive: 20.6 µM [falling, single point]
O=C(CCl)c1ccc2c(c1)CCN2C(=O)C1CC1 | – | inconclusive: 35.5 µM [falling, single point]
Cc1ccc(N=N/C(=C\O)C(=O)c2ccncc2)cc1 | inactive: -25.1% | –
Cc1ccc(S(=O)(=O)N(CC(=O)N2CCOCC2)C2CCCCC2)cc1 | inconclusive: 8.65% | –
CCCCN(CC)C(=O)CSc1nc2ccccc2c(=O)n1Cc1ccco1 | inconclusive: 22.8% | –
CCC(=O)Nc1cccc(NC(=S)NC(=O)c2ccccc2)c1 | – | inconclusive: 20.6 µM [falling, single point]
CCCN1C(=O)C(O)(CC(=O)c2ccc3c(c2)OCCO3)c2ccccc21 (stereo not drawn) | inactive: 4.96% | –
O=C(Oc1ccccc1)c1cccnc1Oc1ccccc1 | inconclusive: 19.5% | –
Cc1ccc(NC(=S)NC(=O)c2ccc(F)cc2)cc1S(=O)(=O)Nc1cccc(Cl)c1 | – | inconclusive: 10 µM [cytotoxic, partial curve]
COc1ccc2[nH]c(=O)c(CN(CCN3CCCC3)C(=O)Nc3ccccc3Cl)cc2c1 | inactive: 1.15% | –
COc1cccc(NC2=Nc3cccc4cccc2c34)c1 | – | inconclusive: 23.1 µM [falling, single point]
CC1C(=O)CC(c2ccccc2)N(C)C1c1ccccc1 (stereo not drawn) | inconclusive: 27.1% | –
NNC(=O)c1cccc(COc2ccccc2Br)c1 | inconclusive: -13.5% | –
O=C(Nc1nc2c(s1)CCCC2)c1nn(Cc2ccccc2)c(=O)c2ccccc12 | inconclusive: 2.28% | –
COc1cc2c(cc1OC)C(COc1ccccc1OC)N(C(=O)c1ccc(S(=O)(=O)N(C)C)cc1)CC2 (stereo not drawn) | – | inconclusive: 15.8 µM [rising, single point]
COc1cc(C=C(c2nc3ccccc3s2)c2nc3ccccc3s2)cc(OC)c1O | – | inconclusive: 11.6 µM [falling, partial curve]
Cn1c(=O)[nH]c(=O)c2c1nc(SCC(O)CO)n2CCCc1ccccc1 (stereo not drawn) | inconclusive: -0.446% | –
CC(C)Cn1c(CCCNC(=O)c2ccc(F)cc2)nc2ccccc21 | inactive: -0.374% | –
Fc1cccc(F)c1/C=C/c1ccc2ccccc2n1 | – | inconclusive: 18.4 µM [falling, single point]
COc1ccccc1NC(=O)Nc1nc(CC(=O)NC2CCCC2)cs1 | inconclusive: 5.16% | –
COc1ccccc1NC(=O)C(=O)Nc1ccc2c(c1)N(C(=O)C1CC1)CCC2 | – | inconclusive: 25.9 µM [falling, partial curve, poor fit]
COc1ccc(N2C(=O)N3[C@H](c4cccc(C)c4)[C@@H]4C(=O)N(Cc5ccccc5)C(=O)[C@@H]4[C@]3(Cc3ccccc3)C2=O)cc1 | inconclusive: 3.36% | –
Cc1c(Cl)cccc1NC(=S)N1CCN(Cc2ccccc2)CC1 | – | inconclusive: 17.8 µM [falling, single point]
COc1ccc(C(=O)NCCNc2ccc([N+](=O)[O-])cc2)cc1 | inactive: 1.54% | –

SMILES | activity change, negative = inhibition | Potency
Cc1ccc(NC(=O)CS(=O)CC(=O)N(CC(=O)NC(C)(C)C)c2cccc(C)c2C)cc1 (stereo not drawn) | inactive: -0.674% | –
Cc1ccc(C(=O)N/C(N)=N/c2nc3ccccc3o2)cc1 | – | inconclusive: 0.13 µM [rising, full curve, poor fit]
Cc1cc(C)c(S(=O)(=O)Nc2cc(C)on2)c(C)c1 | inconclusive: 5.67% | –
NC(=O)/C(N=Nc1ccccc1)=N/Nc1ccccc1 | – | inconclusive: 29.1 µM [falling, single point]
C=CCN(CC=C)CCOc1ccc(C)cc1[N+](=O)[O-] | inactive: 5.27% | –
COc1ccc(-c2csc(N3C(=N)SCC3=O)n2)cc1 | inconclusive: 19.4% | –
N#CCSc1nc2ccccc2c(=O)n1C1CCCCC1 | inactive: 0.838% | –
COC(=O)c1sccc1-c1ccc(/C=N/OC(=O)c2ccccc2)o1 | – | inconclusive: 17.8 µM [falling, partial curve]
Cc1cc(C)c2cc(CN(Cc3ccco3)C(=S)NCC3CCCO3)c(=O)[nH]c2c1 (stereo not drawn) | inconclusive: -12% | –
COc1cccc(OCC(O)CN2CCN(CCN3C(=O)c4cccc5cccc(c45)C3=O)CC2)c1 (stereo not drawn) | – | inconclusive: 12.6 µM [falling, partial curve]
COc1ccccc1Nc1nc(N)nc(-c2oc3ccccc3c2C)n1 | inconclusive: 29% | –
O=C(Nc1ccc(N2CCOCC2)cc1)c1cc(F)c(F)cc1Cl | inconclusive: 0.807% | –
O=C(NC1C=CS(=O)(=O)C1)c1sc2ccccc2c1Cl (stereo not drawn) | – | inconclusive: 25.1 µM [falling, single point]
Cc1ccc(C(=O)O/N=C(\N)c2ccccn2)c(Cl)c1 | – | inconclusive: 31.6 µM [rising, single point]
O=[N+]([O-])c1c(Nc2cccc(O)c2)cc(Cl)c2nonc12 | inconclusive: 13.9% | –
COc1ccccc1Oc1ccc(N/C=C/C(=O)c2ccco2)cc1 | inconclusive: -18.4% | –
COCCn1c(SCC(=O)N2CCC(C)CC2)nc2c([nH]c3ccccc32)c1=O | inconclusive: -0.717% | –
CCN(CC)C(=O)C(=O)Nc1cc(C(F)(F)F)ccc1Cl | inconclusive: 3.44% | –
CCCN(C(=O)c1ccccc1N)c1c(C)n(C)n(-c2ccccc2)c1=O | inconclusive: 0.37% | –
CN(C)c1ccc(NC(=O)c2ccc([N+](=O)[O-])cc2Cl)cc1 | inconclusive: 6.77% | –
CC(C)(C)c1ccc(C(=O)Nc2ccc(NC(=O)c3ccco3)cc2)cc1 | inactive: -1.43% | –
CC(=O)c1ccc(-c2csc(N3CCC(C(N)=O)CC3)n2)cc1 | inconclusive: 5.94% | –
O=c1cc(-c2ccc([N+](=O)[O-])cc2)nc2cc(-c3ccc(Cl)cc3)[nH]n12 | – | inconclusive: 0.517 µM [falling, full curve, poor fit]
COc1ccc(NC(=O)c2ccco2)cc1NC(=O)c1cc(Br)ccc1Cl | inconclusive: -8.87% | –
O=C(O)c1ccccc1CSc1nc2ccccc2s1 | – | inconclusive: 28.2 µM [falling, single point]
FC(F)(F)c1cc(NC2CCCCC2)ccn1 | inconclusive: 1.96% | –

Taken from above:
C=CCN(CC=C)CCOc1ccc(C)cc1[N+](=O)[O-] | activity change, negative = inhibition: inactive: 5.27%
Cc1cc(C)c2cc(CN(Cc3ccco3)C(=S)NCC3CCCO3)c(=O)[nH]c2c1 (stereo not drawn) | activity change, negative = inhibition: inconclusive: -12%
N#CCSc1nc2ccccc2c(=O)n1C1CCCCC1 | activity change, negative = inhibition: inactive: 0.838%
O=C(O)c1ccccc1CSc1nc2ccccc2s1 | Potency: inconclusive: 28.2 µM [falling, single point]
COCCn1c(SCC(=O)N2CCC(C)CC2)nc2c([nH]c3ccccc32)c1=O | activity change, negative = inhibition: inconclusive: -0.717%

(more compounds)

SMILES | activity change, negative = inhibition | Potency
CCCOc1ccc(CC(=O)N/N=C\c2ccc(F)cc2)cc1 | inconclusive: 2.38% | –
Cc1ccc(S(=O)(=O)NCc2cccnc2)cc1C(=O)NC1CCCCC1 | inactive: -3.08% | –
COc1ccc(Nc2nc(N)c3ccccc3n2)c(OC)c1 | – | inconclusive: 35.5 µM [rising, single point]
Cc1cccc2cc3c(N)c(C(=O)N4CCc5ccccc54)sc3nc12 | inconclusive: -2.31% | –
O=C(Nc1ccc2nc(-c3cccnc3)[nH]c2c1)C12CC3CC(CC(C3)C1)C2 | – | inconclusive: 5.8 µM [rising, full curve]
NCCCC[C@H]1CNC(=O)C(=O)N1CCCCC1CCCCC1 | inactive: 1.06% | –
COc1ccc(S(=O)(=O)N2CCCC2CNC(=O)C(=O)Nc2ccc(F)cc2)cc1 (stereo not drawn) | – | inconclusive: 4.61 µM [falling, partial curve]
O=[N+]([O-])c1cc2c(cc1[N+](=O)[O-])OCCOCCOCCOCCO2 | – | inconclusive: 3.98 µM [rising, partial curve, poor fit]
Fc1ccc(-c2cn3cc(C(F)(F)F)cc(Cl)c3n2)cc1 | inconclusive: 14.5% | –
Nc1nc(Nc2ccc(Cl)cc2)nc2ccccc12 | – | inconclusive: 20.6 µM [falling, partial curve]
COCC(C)n1c(C)cc(C(=O)CN2c3cccc4cccc(c34)S2(=O)=O)c1C (stereo not drawn) | inconclusive: -1.58% | –
Oc1oc(-c2cccc3ccccc23)nc1/C=N/c1nccs1 | – | inconclusive: 3.66 µM [rising, full curve, poor fit]
CCCn1c(=O)c(C(=O)Nc2cnccn2)c(O)c2ccccc21 | – | inconclusive: 25.9 µM [rising, partial curve, poor fit]
COc1ccc(S(=O)(=O)N(CC(=O)Nc2ccc(C)cc2)c2ccc(C)cc2)cc1OC | – | inconclusive: 3.55 µM [rising, single point]
CCCCN1C(=N)N([C@@H](CCC)CN2CCC[C@H]2CN2C(N)=NC[C@@H]2Cc2ccccc2)C[C@H]1[C@H](C)CC | inactive: 0.938% | –
Cc1cc(C)n2nc(SCC(=O)NC3CCCC(C)C3C)nc2n1 (stereo not drawn) | inactive: 0.805% | –
CCCCn1c(=O)c2ccccc2n2c(=S)[nH]nc12 | inactive: 7.07% | –
CC1CCCCN1C(=O)c1cc2ccccc2cc1O (stereo not drawn) | inactive: 1.36% | –
O=[N+]([O-])c1ccc(Nc2ccc(F)cc2)cc1 | inconclusive: 1.67% | –
Nc1nc(SCc2ccccc2)[nH]c(=O)c1-c1ccccc1 | – | inconclusive: 29.1 µM [falling, single point]
COc1ccc(-c2noc(N3CCC(C(=O)Nc4ccc(F)cc4)CC3)n2)cc1 | – | inconclusive: 0.0891 µM [falling, full curve, poor fit]
COC(c1ccccc1)c1nnc(CCC(=O)N(C)C(C2CC2)C2CC2)o1 (stereo not drawn) | inconclusive: 20.4% | –
CC1=NN(C(=O)c2ccccc2C)C(O)(c2ccc(Cl)cc2)C1 (stereo not drawn) | – | inconclusive: 11.2 µM [falling, partial curve]
O=C(O)CCc1ccc(-c2ccccc2)n1-c1cccc(C(=O)O)c1 | inconclusive: -19.2% | –
COCCNC(=O)c1ccccc1NC(=O)C1COc2ccccc2O1 (stereo not drawn) | inconclusive: 2.92% | –
COc1ccc([C@@H]2[C@@H]3C(=O)N(C(C)(C)C)C(=O)[C@@H]3[C@]3(Cc4ccc(Cl)cc4)C(=O)N(c4ccc(Br)cc4)C(=O)N23)cc1 | inconclusive: 6.47% | –
